Measurements from paper PMC6221362.
Results are given in words; binding and its absence hold for the method and conditions named. In cells and extracts the contact can be indirect.

By UniProt entry, the sequences of proteins in these tests, tags left out.
UniProt Q61545: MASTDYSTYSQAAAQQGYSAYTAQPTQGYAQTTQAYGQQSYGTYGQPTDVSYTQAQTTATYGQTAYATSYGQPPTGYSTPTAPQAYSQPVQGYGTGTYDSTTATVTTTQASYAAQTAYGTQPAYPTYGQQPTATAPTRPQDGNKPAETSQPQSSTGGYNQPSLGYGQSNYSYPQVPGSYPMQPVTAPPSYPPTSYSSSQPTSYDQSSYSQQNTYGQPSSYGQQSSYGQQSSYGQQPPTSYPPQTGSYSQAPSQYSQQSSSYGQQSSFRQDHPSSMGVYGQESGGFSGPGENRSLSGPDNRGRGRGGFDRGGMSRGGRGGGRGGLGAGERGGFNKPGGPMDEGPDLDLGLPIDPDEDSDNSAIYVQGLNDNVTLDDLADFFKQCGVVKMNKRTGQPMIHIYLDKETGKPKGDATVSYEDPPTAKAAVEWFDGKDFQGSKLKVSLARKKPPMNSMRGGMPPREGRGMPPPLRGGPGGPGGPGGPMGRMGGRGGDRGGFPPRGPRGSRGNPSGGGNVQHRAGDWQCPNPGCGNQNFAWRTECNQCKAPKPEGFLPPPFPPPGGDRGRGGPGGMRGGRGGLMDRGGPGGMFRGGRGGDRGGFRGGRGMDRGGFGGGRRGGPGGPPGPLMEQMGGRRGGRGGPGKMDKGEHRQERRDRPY
UniProt Q9CWW7: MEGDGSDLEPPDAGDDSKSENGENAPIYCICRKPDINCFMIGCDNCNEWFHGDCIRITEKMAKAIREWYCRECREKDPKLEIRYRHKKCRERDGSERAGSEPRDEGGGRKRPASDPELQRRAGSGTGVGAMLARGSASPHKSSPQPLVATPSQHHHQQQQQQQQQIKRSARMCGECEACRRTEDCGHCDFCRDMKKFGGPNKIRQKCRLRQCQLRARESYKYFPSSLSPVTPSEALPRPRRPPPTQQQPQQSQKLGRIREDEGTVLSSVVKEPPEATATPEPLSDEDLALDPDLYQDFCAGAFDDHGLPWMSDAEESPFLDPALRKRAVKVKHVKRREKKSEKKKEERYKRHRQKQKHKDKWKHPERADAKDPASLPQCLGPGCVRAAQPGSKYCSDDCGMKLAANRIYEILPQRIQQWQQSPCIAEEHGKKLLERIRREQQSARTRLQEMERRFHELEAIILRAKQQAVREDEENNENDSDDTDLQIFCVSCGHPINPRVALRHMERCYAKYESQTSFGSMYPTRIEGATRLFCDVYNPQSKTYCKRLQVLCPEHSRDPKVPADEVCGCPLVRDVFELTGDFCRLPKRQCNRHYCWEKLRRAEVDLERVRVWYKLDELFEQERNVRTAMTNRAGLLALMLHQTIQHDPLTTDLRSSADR

Tests used:
[1] = target: HA-tagged EWSR1 (mouse) (UniProt Q61545); experiment: co-IP; Myc-CXXC1, HA-EWSR1 and Flag-PRDM9 co-expressed in HEK293 cells; extract in Pierce IP buffer; antibodies against HA or Myc on protein G Dynabeads, overnight at 4°C; western blot for HA, Myc and Flag; with or without PRDM9
[2] = target: EWSR1 (mouse (endogenous in 14 dpp B6 testis)) (UniProt Q61545); experiment: co-IP; 14 dpp B6 testicular extract; co-IP with anti-EWSR1, with and without DNase I treatment; western blot for EWSR1 and CXXC1; non-immune IgG as control

For “Myc-tagged mouse CXXC1 (from UniProt Q9CWW7 1-660)”, which binding [1] is on record?
Its binding is “no binding”.

Which binding [2] does the source give for “CxxC finger protein 1 (CXXC1) (from UniProt Q9CWW7 1-660)” here?
The binding was “no binding”.
